This is one part of the list. Most entries show no effect beyond the scatter of the controls.

Amino acid sequences for entries named in this document (tags omitted). A change or cut given only in a name is not applied to a line headed by its entry.
UniProt Q9DBD0: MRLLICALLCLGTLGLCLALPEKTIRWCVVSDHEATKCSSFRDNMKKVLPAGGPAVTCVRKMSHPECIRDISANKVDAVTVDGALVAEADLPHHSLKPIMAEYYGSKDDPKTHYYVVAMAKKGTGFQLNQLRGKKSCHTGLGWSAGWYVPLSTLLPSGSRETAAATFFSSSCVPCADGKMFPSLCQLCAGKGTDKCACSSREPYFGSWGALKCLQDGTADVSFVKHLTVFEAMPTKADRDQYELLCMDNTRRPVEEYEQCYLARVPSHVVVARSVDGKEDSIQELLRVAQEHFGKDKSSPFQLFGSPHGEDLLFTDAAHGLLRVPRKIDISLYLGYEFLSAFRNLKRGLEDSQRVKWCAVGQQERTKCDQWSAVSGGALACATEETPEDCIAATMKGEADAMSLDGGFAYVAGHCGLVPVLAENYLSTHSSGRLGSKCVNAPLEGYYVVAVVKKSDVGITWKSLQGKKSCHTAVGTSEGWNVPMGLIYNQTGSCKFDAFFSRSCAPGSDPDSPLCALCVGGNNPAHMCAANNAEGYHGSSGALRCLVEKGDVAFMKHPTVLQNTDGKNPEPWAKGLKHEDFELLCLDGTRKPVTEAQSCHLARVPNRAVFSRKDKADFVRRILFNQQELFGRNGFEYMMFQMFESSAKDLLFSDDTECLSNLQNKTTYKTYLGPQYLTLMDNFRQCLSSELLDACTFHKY
UniProt Q9DAR7: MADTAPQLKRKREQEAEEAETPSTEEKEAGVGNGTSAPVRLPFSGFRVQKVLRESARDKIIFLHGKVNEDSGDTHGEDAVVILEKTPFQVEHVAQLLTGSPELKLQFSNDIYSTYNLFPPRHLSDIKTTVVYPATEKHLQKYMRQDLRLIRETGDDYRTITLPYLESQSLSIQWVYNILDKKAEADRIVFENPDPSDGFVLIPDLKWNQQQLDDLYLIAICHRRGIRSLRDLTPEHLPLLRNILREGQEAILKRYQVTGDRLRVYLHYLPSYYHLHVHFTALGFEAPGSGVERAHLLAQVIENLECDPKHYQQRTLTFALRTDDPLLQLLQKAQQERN
UniProt Q9DBR0: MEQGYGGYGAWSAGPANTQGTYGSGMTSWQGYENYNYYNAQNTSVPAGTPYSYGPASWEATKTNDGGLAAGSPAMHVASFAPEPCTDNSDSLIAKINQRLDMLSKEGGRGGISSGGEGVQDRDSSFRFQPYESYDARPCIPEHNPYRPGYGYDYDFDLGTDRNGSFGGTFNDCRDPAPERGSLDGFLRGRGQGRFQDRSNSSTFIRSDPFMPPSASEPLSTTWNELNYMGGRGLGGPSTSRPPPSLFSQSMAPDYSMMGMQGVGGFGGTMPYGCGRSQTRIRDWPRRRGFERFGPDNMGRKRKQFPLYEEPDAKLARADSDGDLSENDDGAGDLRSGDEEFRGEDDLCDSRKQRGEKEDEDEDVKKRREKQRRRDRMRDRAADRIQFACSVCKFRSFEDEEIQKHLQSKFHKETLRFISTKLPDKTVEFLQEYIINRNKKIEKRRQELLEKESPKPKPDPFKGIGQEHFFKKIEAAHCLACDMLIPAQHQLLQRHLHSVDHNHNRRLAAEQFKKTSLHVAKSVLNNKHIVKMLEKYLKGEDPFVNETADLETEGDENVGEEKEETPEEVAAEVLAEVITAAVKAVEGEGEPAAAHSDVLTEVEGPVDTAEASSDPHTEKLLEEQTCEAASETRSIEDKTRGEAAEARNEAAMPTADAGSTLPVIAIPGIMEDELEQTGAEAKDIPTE
UniProt Q9DB60: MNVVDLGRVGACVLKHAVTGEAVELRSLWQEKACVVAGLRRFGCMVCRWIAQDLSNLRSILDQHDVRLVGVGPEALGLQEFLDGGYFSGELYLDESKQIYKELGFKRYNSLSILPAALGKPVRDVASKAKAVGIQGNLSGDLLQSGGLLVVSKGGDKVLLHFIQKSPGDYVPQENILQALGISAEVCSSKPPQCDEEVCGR
UniProt Q9DCH6: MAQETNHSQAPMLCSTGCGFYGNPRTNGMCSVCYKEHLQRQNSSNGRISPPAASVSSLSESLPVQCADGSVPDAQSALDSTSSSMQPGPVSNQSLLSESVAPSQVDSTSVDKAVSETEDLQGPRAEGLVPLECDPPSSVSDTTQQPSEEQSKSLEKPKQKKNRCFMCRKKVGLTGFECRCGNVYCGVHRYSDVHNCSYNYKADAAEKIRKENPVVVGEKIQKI
UniProt Q9DAS9: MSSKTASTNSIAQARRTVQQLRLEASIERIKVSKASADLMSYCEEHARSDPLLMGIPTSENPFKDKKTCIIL
UniProt Q9DBW0: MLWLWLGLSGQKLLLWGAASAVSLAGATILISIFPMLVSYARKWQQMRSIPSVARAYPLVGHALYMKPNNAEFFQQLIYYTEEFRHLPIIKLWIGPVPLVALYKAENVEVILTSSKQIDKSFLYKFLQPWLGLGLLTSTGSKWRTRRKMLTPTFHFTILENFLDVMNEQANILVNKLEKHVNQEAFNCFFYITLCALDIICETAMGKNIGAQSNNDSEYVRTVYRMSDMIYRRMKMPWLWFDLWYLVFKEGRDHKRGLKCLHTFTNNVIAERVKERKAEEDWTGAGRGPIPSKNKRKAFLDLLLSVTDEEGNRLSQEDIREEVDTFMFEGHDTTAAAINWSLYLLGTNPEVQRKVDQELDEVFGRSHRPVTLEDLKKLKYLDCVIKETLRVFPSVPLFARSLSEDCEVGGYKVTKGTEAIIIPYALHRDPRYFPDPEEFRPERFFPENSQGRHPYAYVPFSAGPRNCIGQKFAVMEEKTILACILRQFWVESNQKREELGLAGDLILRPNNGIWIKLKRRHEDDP
UniProt Q9EQG9: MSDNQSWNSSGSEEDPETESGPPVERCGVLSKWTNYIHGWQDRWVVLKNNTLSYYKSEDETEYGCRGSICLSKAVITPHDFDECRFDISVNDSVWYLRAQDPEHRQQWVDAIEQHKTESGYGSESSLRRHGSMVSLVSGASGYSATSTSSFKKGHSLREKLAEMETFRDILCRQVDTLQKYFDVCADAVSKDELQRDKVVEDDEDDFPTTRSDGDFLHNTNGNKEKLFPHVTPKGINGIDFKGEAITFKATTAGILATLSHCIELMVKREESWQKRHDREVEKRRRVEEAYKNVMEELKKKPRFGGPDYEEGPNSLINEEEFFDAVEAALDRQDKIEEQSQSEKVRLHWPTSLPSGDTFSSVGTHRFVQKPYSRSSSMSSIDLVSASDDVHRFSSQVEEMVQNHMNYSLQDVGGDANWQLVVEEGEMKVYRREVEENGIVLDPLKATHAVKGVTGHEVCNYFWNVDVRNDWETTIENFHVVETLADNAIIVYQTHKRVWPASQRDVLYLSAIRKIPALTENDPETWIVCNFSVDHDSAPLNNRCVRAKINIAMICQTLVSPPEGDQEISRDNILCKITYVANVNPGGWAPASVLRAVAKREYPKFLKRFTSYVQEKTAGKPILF
UniProt Q9EQJ9: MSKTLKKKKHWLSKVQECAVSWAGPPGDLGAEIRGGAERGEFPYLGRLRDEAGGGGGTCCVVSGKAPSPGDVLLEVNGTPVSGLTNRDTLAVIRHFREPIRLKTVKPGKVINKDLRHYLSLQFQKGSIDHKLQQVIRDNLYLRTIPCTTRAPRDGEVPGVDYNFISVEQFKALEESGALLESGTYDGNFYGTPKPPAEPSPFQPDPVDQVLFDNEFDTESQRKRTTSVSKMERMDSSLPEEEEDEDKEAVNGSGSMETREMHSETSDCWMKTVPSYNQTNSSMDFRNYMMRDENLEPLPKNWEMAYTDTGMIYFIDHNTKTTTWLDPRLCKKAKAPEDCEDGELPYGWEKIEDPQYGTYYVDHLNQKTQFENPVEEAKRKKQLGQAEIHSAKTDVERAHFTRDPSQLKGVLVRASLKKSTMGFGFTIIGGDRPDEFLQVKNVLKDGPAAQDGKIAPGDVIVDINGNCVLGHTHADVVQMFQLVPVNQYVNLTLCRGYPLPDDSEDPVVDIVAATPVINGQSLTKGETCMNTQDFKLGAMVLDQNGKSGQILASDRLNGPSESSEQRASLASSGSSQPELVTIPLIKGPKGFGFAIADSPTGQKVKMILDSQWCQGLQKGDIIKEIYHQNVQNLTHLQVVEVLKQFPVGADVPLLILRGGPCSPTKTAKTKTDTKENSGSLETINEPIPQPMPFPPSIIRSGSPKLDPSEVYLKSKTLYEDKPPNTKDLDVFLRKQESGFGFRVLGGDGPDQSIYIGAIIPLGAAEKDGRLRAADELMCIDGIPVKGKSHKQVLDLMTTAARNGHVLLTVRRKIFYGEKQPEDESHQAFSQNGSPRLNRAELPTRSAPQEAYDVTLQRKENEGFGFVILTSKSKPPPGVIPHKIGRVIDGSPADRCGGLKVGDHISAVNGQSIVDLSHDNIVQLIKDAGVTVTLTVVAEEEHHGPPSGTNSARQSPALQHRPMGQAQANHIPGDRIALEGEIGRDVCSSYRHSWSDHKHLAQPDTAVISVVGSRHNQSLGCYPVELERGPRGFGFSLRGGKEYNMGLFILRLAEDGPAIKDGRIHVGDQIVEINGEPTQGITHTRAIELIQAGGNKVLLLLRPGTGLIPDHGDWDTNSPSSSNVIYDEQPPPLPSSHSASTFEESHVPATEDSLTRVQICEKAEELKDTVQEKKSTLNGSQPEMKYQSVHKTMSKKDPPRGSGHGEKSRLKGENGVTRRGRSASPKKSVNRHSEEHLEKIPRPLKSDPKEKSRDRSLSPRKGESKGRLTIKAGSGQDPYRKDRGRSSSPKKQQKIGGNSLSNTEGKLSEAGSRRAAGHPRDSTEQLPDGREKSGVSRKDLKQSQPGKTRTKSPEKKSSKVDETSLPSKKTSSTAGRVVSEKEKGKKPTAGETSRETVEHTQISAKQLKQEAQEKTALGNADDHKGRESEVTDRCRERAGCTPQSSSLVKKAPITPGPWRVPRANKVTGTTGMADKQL
UniProt Q9EQZ7: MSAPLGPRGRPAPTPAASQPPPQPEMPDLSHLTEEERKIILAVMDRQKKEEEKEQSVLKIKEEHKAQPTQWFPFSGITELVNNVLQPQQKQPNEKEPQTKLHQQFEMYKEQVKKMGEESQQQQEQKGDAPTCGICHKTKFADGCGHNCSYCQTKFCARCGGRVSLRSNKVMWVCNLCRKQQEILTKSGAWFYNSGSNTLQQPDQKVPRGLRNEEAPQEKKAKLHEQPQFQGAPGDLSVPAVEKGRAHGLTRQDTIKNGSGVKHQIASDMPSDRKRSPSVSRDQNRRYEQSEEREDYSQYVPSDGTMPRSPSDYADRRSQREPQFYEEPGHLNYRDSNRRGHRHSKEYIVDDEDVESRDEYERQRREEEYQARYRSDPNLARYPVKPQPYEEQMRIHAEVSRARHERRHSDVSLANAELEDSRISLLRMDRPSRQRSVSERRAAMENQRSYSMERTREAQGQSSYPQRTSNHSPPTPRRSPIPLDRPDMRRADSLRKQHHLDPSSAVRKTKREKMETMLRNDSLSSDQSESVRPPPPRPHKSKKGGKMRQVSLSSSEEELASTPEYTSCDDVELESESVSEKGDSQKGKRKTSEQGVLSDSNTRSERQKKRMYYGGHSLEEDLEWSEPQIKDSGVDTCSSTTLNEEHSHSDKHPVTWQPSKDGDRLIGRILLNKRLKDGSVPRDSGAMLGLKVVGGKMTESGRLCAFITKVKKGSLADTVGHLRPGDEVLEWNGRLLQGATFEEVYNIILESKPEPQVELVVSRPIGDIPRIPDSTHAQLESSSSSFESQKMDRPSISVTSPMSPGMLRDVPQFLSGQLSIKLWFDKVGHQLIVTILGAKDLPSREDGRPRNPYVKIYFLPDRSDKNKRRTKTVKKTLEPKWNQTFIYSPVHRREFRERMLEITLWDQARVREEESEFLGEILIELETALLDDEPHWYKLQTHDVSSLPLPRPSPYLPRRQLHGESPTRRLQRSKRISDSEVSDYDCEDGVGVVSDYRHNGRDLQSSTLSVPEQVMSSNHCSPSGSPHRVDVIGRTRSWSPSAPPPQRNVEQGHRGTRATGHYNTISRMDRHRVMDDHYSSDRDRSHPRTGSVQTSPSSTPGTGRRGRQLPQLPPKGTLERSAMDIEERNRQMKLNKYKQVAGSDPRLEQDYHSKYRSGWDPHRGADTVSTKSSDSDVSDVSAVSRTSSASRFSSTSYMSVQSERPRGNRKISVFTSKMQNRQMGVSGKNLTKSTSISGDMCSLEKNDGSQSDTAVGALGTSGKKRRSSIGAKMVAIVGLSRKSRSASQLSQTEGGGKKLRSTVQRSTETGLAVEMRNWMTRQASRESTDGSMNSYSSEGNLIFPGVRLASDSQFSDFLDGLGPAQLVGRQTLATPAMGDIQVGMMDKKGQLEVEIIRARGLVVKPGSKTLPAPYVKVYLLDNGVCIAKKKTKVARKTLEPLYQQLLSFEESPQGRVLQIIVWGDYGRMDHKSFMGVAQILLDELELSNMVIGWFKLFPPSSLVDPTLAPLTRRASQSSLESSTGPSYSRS
UniProt Q9DCH2: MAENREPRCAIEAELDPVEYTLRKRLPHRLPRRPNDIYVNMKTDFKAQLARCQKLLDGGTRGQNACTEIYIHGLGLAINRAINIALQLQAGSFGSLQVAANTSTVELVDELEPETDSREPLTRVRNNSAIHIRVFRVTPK

Compound in the assay: CN[C@@H]1C[C@H]2O[C@@](C)([C@@H]1OC)n1c3ccccc3c3c4c(c5c6ccccc6n2c5c31)C(=O)NC4 [staurosporine]
The experiment in a line: log2 fold change of tryptic peptide abundance, ligand vs vehicle (limited proteolysis) (log2 ratio); higher = more trypsin-susceptible (destabilized). The following applies: ligand concentration: 20 uM; sample: mouse liver crude lysate; replicate design: treated separately.
On to “UniProt Q9DBL9 (peptide sequence: SCIDGNSGTSIQSLRPK, peptide start residue: 300)”, for which the log2 fold change came to 0.0342.

For “UniProt Q9DBD0 (peptide sequence: VLPAGGPAVTCVR, peptide start residue: 48)”, the log2 fold change was 0.221. For “UniProt Q9DBL1 (peptide sequence: LVEAGRPFIKEASMAK, peptide start residue: 356)” the value was 0.23; for “UniProt Q9DCG6 (peptide sequence: RGGELDISLRPDGR, peptide start residue: 258)”, 0.204; for “UniProt Q9DAR7 (peptide sequence: REQEAEEAETPSTEEK, peptide start residue: 12)”, 0.225.

For the target “UniProt Q9DBR0 (peptide sequence: LAAEQFKK, peptide start residue: 507)”, the log2 fold change was -0.131. Consider “UniProt Q9EP75 (peptide sequence: AEGGLWLRVEPLSAGAH, peptide start residue: 508)”, for which the log2 fold change was found to be 0.131. For “UniProt Q9DBU6 (peptide sequence: YQDDNSLAHPNLFIEK, peptide start residue: 294)”, the log2 fold change stood at 0.443. Consider “UniProt Q9DBE0 (peptide sequence: DTSNLLKR, peptide start residue: 320)”, for which the log2 fold change came to 0.47. “UniProt Q9DB60 (peptide sequence: HAVTGEAVELR, peptide start residue: 16)”: the log2 fold change stood at 0.112.

Regarding “UniProt Q9DCH6 (peptide sequence: VGLTGFECR, peptide start residue: 171)”, the log2 fold change was -0.331.

Regarding “UniProt Q9DBX2 (peptide sequence: DKNLDDEEFLQQYRK, peptide start residue: 128)”, the log2 fold change came to 0.315. For the target “UniProt Q9DAS9 (peptide sequence: RTVQQLR, peptide start residue: 16)”, the log2 fold change is -0.899.

Take “UniProt Q9ERI5 (peptide sequence: ADALQLSVK, peptide start residue: 49)”: the log2 fold change is -0.669. Next, “UniProt Q9DBM0 (peptide sequence: DKRVEDVIAELR, peptide start residue: 186)”: -0.726. Consider “UniProt Q9DCS9 (peptide sequence: PDSWDKDVYPEPPSR, peptide start residue: 2)”, for which the log2 fold change is -0.119. For “UniProt Q9DCV7 (peptide sequence: AEAEAWYQTK, peptide start residue: 271)” the value was 0.162; for “UniProt Q9DBW0 (peptide sequence: KAEEDWTGAGRGPIPSK, peptide start residue: 277)”, -0.399. For “UniProt Q9DAT5 (peptide sequence: LGPSAYTLQK, peptide start residue: 386)” the value was -0.359; for “UniProt Q9DD19 (peptide sequence: LQALSAATAEHAAR, peptide start residue: 198)”, 0.0805; for “UniProt Q9DB76 (peptide sequence: MCLHASR, peptide start residue: 14)”, 0.325. Take “UniProt Q9EPW0 (peptide sequence: YAFNSLQLK, peptide start residue: 913)”: the log2 fold change amounted to 0.496. As to “UniProt Q9DBK0 (peptide sequence: SGWEITTTLEK, peptide start residue: 367)”, the log2 fold change was -0.772.

For “UniProt Q9EQG9 (peptide sequence: REVEENGIVLDPLKATHAVK, peptide start residue: 432)”, the log2 fold change was -0.527. “UniProt Q9EQJ9 (peptide sequence: IALEGEIGRDVCSSYR, peptide start residue: 975)”: the log2 fold change came out at 0.426. For “UniProt Q9EPU4 (peptide sequence: IELEEWEHVTCMK, peptide start residue: 1090)” the value was -0.486; for “UniProt Q9DCS2 (peptide sequence: CLIFRKE, peptide start residue: 198)”, 0.142; for “UniProt Q9DB16 (peptide sequence: TDDEQFADEKNYLIK, peptide start residue: 313)”, 0.143. With “UniProt Q9EQZ7 (peptide sequence: KEEEKEQSVLK, peptide start residue: 49)”, the log2 fold change worked out at 0.0236.

For the target “UniProt Q9ERS5 (peptide sequence: YFLQANDQK, peptide start residue: 91)”, the log2 fold change came to 0.262.

Consider “UniProt Q9DCB8 (peptide sequence: VFEQGGAR, peptide start residue: 98)”, for which the log2 fold change was -0.134.

Turning to “UniProt Q9DB25 (peptide sequence: EALPSIWDSPTK, peptide start residue: 54)”, the log2 fold change was -0.146.

Take “UniProt Q9DAW9 (peptide sequence: TKGFHTTIDIGVK, peptide start residue: 131)”: the log2 fold change is -0.397.

For the target “UniProt Q9DBV4 (peptide sequence: VSVNTNAFAR, peptide start residue: 242)”, the log2 fold change turned out to be 0.236. In the case of “UniProt Q9EP89 (peptide sequence: AKVEQDSEAR, peptide start residue: 269)”, the log2 fold change was -0.114. Next, “UniProt Q9ERD6 (peptide sequence: EDLAGPDIGASPQGGRK, peptide start residue: 298)”: -0.285.

As for “UniProt Q9DC22 (peptide sequence: LADEVITR, peptide start residue: 817)”, the log2 fold change was -0.4. With “UniProt Q9DCH2 (peptide sequence: NNSAIHIR, peptide start residue: 126)”, the log2 fold change is -0.221. As to “UniProt Q9DB42 (peptide sequence: RRPDLDEIHR, peptide start residue: 24)”, the log2 fold change was determined as 0.489.

These data come from the supplement of paper PMC12819154, “High-throughput peptide-centric local stability assay extends protein–ligand identification to membrane proteins, tissues and bacteria” (Nature Structural & Molecular Biology, 2025).
